Results on two molecules are retold here after US9232788B2, “Fumigation methods” (Honeywell International Inc., priority 2011, dated 2016).

This series in a line: Atmospheric lifetime, global warming potential and ozone depletion potential. The conditions noted are these: factor relative to carbon dioxide (= 1).

`FC(F)=CC(F)(F)F` [1225zc, 1,1,3,3,3-pentafluoropropene]: the GWP result is recorded as “less than 1”. Turning to `FC(F)=C(F)C(F)(F)F` [HFP, hexafluoropropene], the GWP result is “about 0.25”.
